Measurements from paper PMC7492797.
No constants are given. Whether binding was seen depends on the method and setting. In cells and extracts the contact can be indirect. Some results given as binding are weak or reduced against the parent protein; the word gives no strength.

Protein sequences, listed by entry. Tags and fused reporters are not part of them.
UniProt D3ZYS7: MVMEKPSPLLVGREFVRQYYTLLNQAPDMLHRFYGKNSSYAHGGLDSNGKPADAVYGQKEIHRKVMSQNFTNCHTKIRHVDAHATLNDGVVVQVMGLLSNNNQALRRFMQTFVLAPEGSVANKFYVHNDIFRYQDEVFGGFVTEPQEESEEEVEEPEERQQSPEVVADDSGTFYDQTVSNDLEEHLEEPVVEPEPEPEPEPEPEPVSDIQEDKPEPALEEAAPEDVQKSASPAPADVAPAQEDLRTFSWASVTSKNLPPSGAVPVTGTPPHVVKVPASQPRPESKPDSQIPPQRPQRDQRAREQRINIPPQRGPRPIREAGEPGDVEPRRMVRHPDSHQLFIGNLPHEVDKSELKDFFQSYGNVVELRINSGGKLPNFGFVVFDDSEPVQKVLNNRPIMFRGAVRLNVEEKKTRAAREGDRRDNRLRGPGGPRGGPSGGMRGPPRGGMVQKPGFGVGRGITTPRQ

Target: T1, RNA binding protein motif 3 (RBM3) (rat (endogenous in PC12)) (UniProt Q925G0)
T1 sequence: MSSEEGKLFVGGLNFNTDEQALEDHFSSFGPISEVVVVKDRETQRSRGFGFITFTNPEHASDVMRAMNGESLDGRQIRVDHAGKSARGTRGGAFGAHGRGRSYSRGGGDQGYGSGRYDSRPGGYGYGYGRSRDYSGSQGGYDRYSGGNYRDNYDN
Assay: co-IP; anti-RBM3 rabbit polyclonal antibody (10 ug) cross-linked with DSS to magnetic beads, incubated with 500 ug total protein from PC12 cells (control or 6 h of OGD stimulation); low-pH elution, SDS-PAGE

binding: binds
Substance: GTPase-activating protein-binding protein 1 (G3BP1) (from UniProt D3ZYS7 1-465)
